Publication doi:10.1101/2025.05.20.655052
Results are given in words; binding and its absence hold for the method and conditions named. Binding seen in cells or lysates may run through a third protein. These calls come from enrichment with a bait or labelling near it, and not all partners need be listed. For part of these data: Tags and fused reporters may be left off the sequences shown.

Amino acid sequences for entries named in this document (tags omitted).
UniProt Q5TGZ0: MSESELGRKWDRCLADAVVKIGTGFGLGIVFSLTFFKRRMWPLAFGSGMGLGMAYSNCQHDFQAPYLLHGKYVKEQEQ
UniProt Q5XKP0: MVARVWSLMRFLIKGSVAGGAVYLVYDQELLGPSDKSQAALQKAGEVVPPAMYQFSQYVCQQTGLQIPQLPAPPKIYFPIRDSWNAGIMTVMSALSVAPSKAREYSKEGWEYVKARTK

T1: MIC27-APEX2-Myc (human) (UniProt Q6UXV4)
T1 sequence: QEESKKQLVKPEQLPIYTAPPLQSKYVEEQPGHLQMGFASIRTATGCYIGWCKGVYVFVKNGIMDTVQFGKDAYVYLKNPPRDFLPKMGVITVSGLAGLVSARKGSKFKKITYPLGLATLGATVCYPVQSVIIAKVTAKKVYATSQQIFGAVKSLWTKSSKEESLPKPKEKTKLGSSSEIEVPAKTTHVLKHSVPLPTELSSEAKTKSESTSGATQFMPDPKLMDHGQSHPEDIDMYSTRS

T2: MIC26-APEX2-Myc (human) (UniProt Q9BUR5)
T2 sequence: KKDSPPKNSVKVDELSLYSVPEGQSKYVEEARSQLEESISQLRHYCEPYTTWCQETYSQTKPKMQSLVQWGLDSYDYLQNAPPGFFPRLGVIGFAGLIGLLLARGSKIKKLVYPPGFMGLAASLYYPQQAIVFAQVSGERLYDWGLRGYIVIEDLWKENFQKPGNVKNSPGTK

B1: Metaxin 1 (protein, UniProt Q13505 1-466)
chain: MLLGGPPRSPRSGTSPKGPWSSTGHVQFGKSPQTWPRRTRPRSPEPAAPSGVRGSTWTRRRDSPRRAGPTALSRYVGHLWMGRRPPSPEARGPVPRSSAASRARRSLASPGISPGPLTATIGGAVAGGGPRQGRAEAHKEVFPGQRVGKMAAPMELFCWSGGWGLPSVDLDSLAVLTYARFTGAPLKVHKISNPWQSPSGTLPALRTSHGEVISVPHKIITHLRKEKYNADYDLSARQGADTLAFMSLLEEKLLPVLVHTFWIDTKNYVEVTRKWYAEAMPFPLNFFLPGRMQRQYMERLQLLTGEHRPEDEEELEKELYREARECLTLLSQRLGSQKFFFGDAPASLDAFVFSYLALLLQAKLPSGKLQVHLRGLHNLCAYCTHILSLYFPWDGAEVPPQRQTPAGPETEEEPYRRRNQILSVLAGLAAMVGYALLSGIVSIQRATPARAPGTRTLGMAEEDEEE
B2: SAMM50 (protein, UniProt Q9Y512 1-469)
chain: MGTVHARSLEPLPSSGPDFGGLGEEAEFVEVEPEAKQEILENKDVVVQHVHFDGLGRTKDDIIICEIGDVFKAKNLIEVMRKSHEAREKLLRLGIFRQVDVLIDTCQGDDALPNGLDVTFEVTELRRLTGSYNTMVGNNEGSMVLGLKLPNLLGRAEKVTFQFSYGTKETSYGLSFFKPRPGNFERNFSVNLYKVTGQFPWSSLRETDRGMSAEYSFPIWKTSHTVKWEGVWRELGCLSRTASFAVRKESGHSLKSSLSHAMVIDSRNSSILPRRGALLKVNQELAGYTGGDVSFIKEDFELQLNKQLIFDSVFSASFWGGMLVPIGDKPSSIADRFYLGGPTSIRGFSMHSIGPQSEGDYLGGEAYWAGGLHLYTPLPFRPGQGGFGELFRTHFFLNAGNLCNLNYGEGPKAHIRKLAECIRWSYGAGIVLRLGNIARLELNYCVPMGVQTGDRICDGVQFGAGIRFL
B3: Peroxiredoxin 4 (protein, UniProt Q13162 38-271)
chain: WETEERPRTREEECHFYAGGQVYPGEASRVSVADHSLHLSKAKISKPAPYWEGTAVIDGEFKELKLTDYRGKYLVFFFYPLDFTFVCPTEIIAFGDRLEEFRSINTEVVACSVDSQFTHLAWINTPRRQGGLGPIRIPLLSDLTHQISKDYGVYLEDSGHTLRGLFIIDDKGILRQITLNDLPVGRSVDETLRLVQAFQYTDKHGEVCPAGWKPGSETIIPDPAGKLKYFDKLN
B4: DNAJC11 (protein, UniProt Q9NVH1 1-559)
chain: MATALSEEELDNEDYYSLLNVRREASSEELKAAYRRLCMLYHPDKHRDPELKSQAERLFNLVHQAYEVLSDPQTRAIYDIYGKRGLEMEGWEVVERRRTPAEIREEFERLQREREERRLQQRTNPKGTISVGVDATDLFDRYDEEYEDVSGSSFPQIEINKMHISQSIEAPLTATDTAILSGSLSTQNGNGGGSINFALRRVTSAKGWGELEFGAGDLQGPLFGLKLFRNLTPRCFVTTNCALQFSSRGIRPGLTTVLARNLDKNTVGYLQWRWGIQSAMNTSIVRDTKTSHFTVALQLGIPHSFALISYQHKFQDDDQTRVKGSLKAGFFGTVVEYGAERKISRHSVLGAAVSVGVPQGVSLKVKLNRASQTYFFPIHLTDQLLPSAMFYATVGPLVVYFAMHRLIIKPYLRAQKEKELEKQRESAATDVLQKKQEAESAVRLMQESVRRIIEAEESRMGLIIVNAWYGKFVNDKSRKSEKVKVIDVTVPLQCLVKDSKLILTEASKAGLPGFYDPCVGEEKNLKVLYQFRGVLHQVMVLDSEALRIPKQSHRIDTDG
B5: Mitochondrial Fission factor (protein, UniProt Q9GZY8 1-342)
chain: MSKGTSSDTSLGRVSRAAFPSPTAAEMAEISRIQYEMEYTEGISQRMRVPEKLKVAPPNADLEQGFQEGVPNASVIMQVPERIVVAGNNEDVSFSRPADLDLIQSTPFKPLALKTPPRVLTLSERPLDFLDLERPPTTPQNEEIRAVGRLKRERSMSENAVRQNGQLVRNDSLWHRSDSAPRNKISRFQAPISAPEYTVTPSPQQARVCPPHMLPEDGANLSSARGILSLIQSSTRRAYQQILDVLDENRRPVLRGGSAAATSNPHHDNVRYGISNIDTTIEGTSDDLTVVDAASLRRQIIKLNRRLQLLEEENKERAKREMVMYSITVAFWLLNSWLWFRR
B6: translocase of inner membrane 23 (protein, UniProt O14925 1-209)
chain: MEGGGGSGNKTTGGLAGFFGAGGAGYSHADLAGVPLTGMNPLSPYLNVDPRYLVQDTDEFILPTGANKTRGRFELAFFTIGGCCMTGAAFGAMNGLRLGLKETQNMAWSKPRNVQILNMVTRQGALWANTLGSLALLYSAFGVIIEKTRGAEDDLNTVAAGTMTGMLYKCTGGLRGIARGGLTGLTLTSLYALYNNWEHMKGSLLQQSL
B7: Catalase (enzyme, UniProt P04040 1-527)
chain: MADSRDPASDQMQHWKEQRAAQKADVLTTGAGNPVGDKLNVITVGPRGPLLVQDVVFTDEMAHFDRERIPERVVHAKGAGAFGYFEVTHDITKYSKAKVFEHIGKKTPIAVRFSTVAGESGSADTVRDPRGFAVKFYTEDGNWDLVGNNTPIFFIRDPILFPSFIHSQKRNPQTHLKDPDMVWDFWSLRPESLHQVSFLFSDRGIPDGHRHMNGYGSHTFKLVNANGEAVYCKFHYKTDQGIKNLSVEDAARLSQEDPDYGIRDLFNAIATGKYPSWTFYIQVMTFNQAETFPFNPFDLTKVWPHKDYPLIPVGKLVLNRNPVNYFAEVEQIAFDPSNMPPGIEASPDKMLQGRLFAYPDTHRHRLGPNYLHIPVNCPYRARVANYQRDGPMCMQDNQGGAPNYYPNSFGAPEQQPSALEHSIQYSGEVRRFNTANDDNVTQVRAFYVNVLNEEQRKRLCENIAGHLKDAQIFIQKKAVKNFTEVHPDYGSHIQALLDKYNAEKPKNAIHTFVQSGSHLAAREKANL
B8: Histidyl-tRNA Synthetase 2, mitochondrial (enzyme, UniProt P49590 34-506)
chain: QSQVAEAVLTSQLKAHQEKPNFIIKTPKGTRDLSPQHMVVREKILDLVISCFKRHGAKGMDTPAFELKETLTEKYGEDSGLMYDLKDQGGELLSLRYDLTVPFARYLAMNKVKKMKRYHVGKVWRRESPTIVQGRYREFCQCDFDIAGQFDPMIPDAECLKIMCEILSGLQLGDFLIKVNDRRIVDGMFAVCGVPESKFRAICSSIDKLDKMAWKDVRHEMVVKKGLAPEVADRIGDYVQCHGGVSLVEQMFQDPRLSQNKQALEGLGDLKLLFEYLTLFGIADKISFDLSLARGLDYYTGVIYEAVLLQTPTQAGEEPLNVGSVAAGGRYDGLVGMFDPKGHKVPCVGLSIGVERIFYIVEQRMKTKGEKVRTTETQVFVATPQKNFLQERLKLIAELWDSGIKAEMLYKNNPKLLTQLHYCESTGIPLVVIIGEQELKEGVIKIRSVASREEVAIKRENFVAEIQKRLSES
B9: Aldehyde Dehydrogenase 1 Family Member L1 (enzyme, UniProt O75891 1-902)
chain: MKIAVIGQSLFGQEVYCHLRKEGHEVVGVFTVPDKDGKADPLGLEAEKDGVPVFKYSRWRAKGQALPDVVAKYQALGAELNVLPFCSQFIPMEIISAPRHGSIIYHPSLLPRHRGASAINWTLIHGDKKGGFSIFWADDGLDTGDLLLQKECEVLPDDTVSTLYNRFLFPEGIKGMVQAVRLIAEGKAPRLPQPEEGATYEGIQKKETAKINWDQPAEAIHNWIRGNDKVPGAWTEACEQKLTFFNSTLNTSGLVPEGDALPIPGAHRPGVVTKAGLILFGNDDKMLLVKNIQLEDGKMILASNFFKGAASSVLELTEAELVTAEAVRSVWQRILPKVLEVEDSTDFFKSGAASVDVVRLVEEVKELCDGLELENEDVYMASTFGDFIQLLVRKLRGDDEEGECSIDYVEMAVNKRTVRMPHQLFIGGEFVDAEGAKTSETINPTDGSVICQVSLAQVTDVDKAVAAAKDAFENGRWGKISARDRGRLMYRLADLMEQHQEELATIEALDAGAVYTLALKTHVGMSIQTFRYFAGWCDKIQGSTIPINQARPNRNLTLTRKEPVGVCGIIIPWNYPLMMLSWKTAACLAAGNTVVIKPAQVTPLTALKFAELTLKAGIPKGVVNVLPGSGSLVGQRLSDHPDVRKIGFTGSTEVGKHIMKSCAISNVKKVSLELGGKSPLIIFADCDLNKAVQMGMSSVFFNKGENCIAAGRLFVEDSIHDEFVRRVVEEVRKMKVGNPLDRDTDHGPQNHHAHLVKLMEYCQHGVKEGATLVCGGNQVPRPGFFFEPTVFTDVEDHMFIAKEESFGPVMIISRFADGDLDAVLSRANATEFGLASGVFTRDINKALYVSDKLQAGTVFVNTYNKTDVAAPFGGFKQSGFGKDLGEAALNEYLRVKTVTFEY
B10: SLC25A20 (protein, UniProt O43772 1-301)
chain: MADQPKPISPLKNLLAGGFGGVCLVFVGHPLDTVKVRLQTQPPSLPGQPPMYSGTFDCFRKTLFREGITGLYRGMAAPIIGVTPMFAVCFFGFGLGKKLQQKHPEDVLSYPQLFAAGMLSGVFTTGIMTPGERIKCLLQIQASSGESKYTGTLDCAKKLYQEFGIRGIYKGTVLTLMRDVPASGMYFMTYEWLKNIFTPEGKRVSELSAPRILVAGGIAGIFNWAVAIPPDVLKSRFQTAPPGKYPNGFRDVLRELIRDEGVTSLYKGFNAVMIRAFPANAACFLGFEVAMKFLNWATPNL

These binders were tested against MIC10-APEX2-Myc (human) (UniProt Q5TGZ0) (assay: proximity labelling).

binding	Binder
binds	B1
binds	B2
binds	B3
binds	B4
binds	B5

Each binder was assayed against T1, MIC27-APEX2-Myc (human) (assay: proximity labelling).

binding	Binder
binds	B1
binds	B2
binds	B4
binds	B6
binds	B7
binds	B8

What follows are binders tested against T2, MIC26-APEX2-Myc (human) (assay: proximity labelling).

binding	Binder
binds	B9
binds	B1
binds	B2
binds	B4
binds	B6

What follows are binders tested against MIC13-APEX2-Myc (human) (UniProt Q5XKP0) (assay: proximity labelling).

binding	Binder
binds	B1
binds	B2
binds	B4
binds	B6
binds	B10
